In the supplement of paper PMC7024190:
Structures can show the parent of a compound that is named as a salt. The list shows a part of the results. Single values are uncertain here, since repeats match poorly.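 Human embryonic kidney cells were transiently transfected with a plasmid bearing a Renilla luciferase gene under the HSV-TK promoter. This first-round screen tests roughly ten thousand compounds for ones that increase reporter output.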

system: HEK 293FT; test: log relative Renilla luciferase luminescence (reporter expression vs reference, reference not stated) (log (base not stated)); higher = higher recombinant reporter expression; settings: 10 µM; time after transfection 48 h

Compound | log
O=C1OC(=O)[C@H]2[C@@H]1[C@@H]1CC[C@H]2O1 [norcantharidin] | 0.0949
C[C@]12CCC3c4ccc(OS(=O)(=O)O)cc4CCC3C1CC[C@H]2O (some centres undefined) [estradiol-3-sulfate, sodium salt] | 0.0695
CC(C)NC(=N)NC(=N)Nc1ccc(Cl)cc1 [chloroguanide hydrochloride] | 0.0323
COc1ccc2c3c1O[C@H]1C[C@@H](O)C=C[C@@]31CCN(C)C2 [galantamine] | -0.0606
CCCC(=O)O[C@]1(C(=O)CO)CC[C@H]2[C@@H]3CCC4=CC(=O)CC[C@]4(C)[C@H]3[C@@H](O)C[C@@]21C [hydrocortisone butyrate] | 0.0405
CC1(C)S[C@@H]2[C@H](NC(=O)COc3ccccc3)C(=O)N2[C@H]1C(=O)O [penicillin v potassium] | 0.022
Cc1nnc(SCC2=C(C(=O)O)N3C(=O)[C@@H](NC(=O)Cn4cnnn4)[C@H]3SC2)s1 [cefazolin sodium] | 0.119
O=c1[nH]c(=O)n([C@H]2C[C@H](O)[C@@H](CO)O2)cc1C(F)(F)F [trifluridine] | -0.062
CCCCCCCCNC(C)C(O)c1ccc(SC(C)C)cc1 (centres undefined) [suloctidil] | -0.00899
CC(=O)CC(c1ccc([N+](=O)[O-])cc1)c1c(O)c2ccccc2oc1=O (centres undefined) [acenocoumarol] | 0.0749
C[C@H]1O[C@@H](O[C@H]2[C@@H](O)C[C@H](O[C@H]3[C@@H](O)C[C@H](O[C@H]4CC[C@@]5(C)[C@H](CC[C@@H]6[C@@H]5CC[C@]5(C)[C@@H](C7=CC(=O)OC7)CC[C@]65O)C4)O[C@@H]3C)O[C@@H]2C)C[C@H](O)[C@@H]1O [digitoxin] | -1.49
C=C(C)[C@@H]1CC[C@]2(C)CC[C@]3(C)[C@H](CC[C@@H]4[C@@]5(C)CC[C@H](O)C(C)(C)[C@@H]5CC[C@]43C)[C@@H]12 [lupeol] | 0.0985
S=c1[nH]cnc2nc[nH]c12 [mercaptopurine] | -0.0748
COc1cc2c(cc1OC)[C@@H]1C(=O)c3ccc4c(c3O[C@@H]1CO2)C=CC(C)(C)O4 [deguelin(-)] | -1.29
CC(C)[C@@H]1CC[C@@H](C)CC1=O [menthone] | -0.0678
NCCCCN [putrescine dihydrochloride] | 0.033
CC1=CC2C(CC1=O)C(C)=CCC2C(C)C (centres undefined) [muurolladie-3-one] | 0.141
O=C1N=C(O)NC1(c1ccccc1)c1ccccc1 [phenytoin sodium] | -0.0895
COc1cc(NS(=O)(=O)c2ccc(N)cc2)nc(OC)n1 [sulfadimethoxine] | 0.0715

Some of the entries so far, in CSV form:
Compound,log
CCCCCCCCNC(C)C(O)c1ccc(SC(C)C)cc1 (centres undefined) [suloctidil],-0.00899
COc1cc2c(cc1OC)[C@@H]1C(=O)c3ccc4c(c3O[C@@H]1CO2)C=CC(C)(C)O4 [deguelin(-)],-1.29
